PubChem BioAssay (Tox21)
Several values for one entry are separate records, joined by “and”; a condition that tells them apart may be missing. Identical values can stand only once. The shares of active, inactive and inconclusive entries below differ from those in the screen. For some of these results: Where the call is inconclusive, the potency comes from a doubtful curve fit. Activity calls are given as the source filed them. Unless noted, calls follow the shape of the full dose curve.

Chains of the proteins cited; added tags and fusions are not shown. Lines headed by an entry give the natural chain unless they say otherwise; changes in a name come on top.
UniProt P14416, whole entry, looked up: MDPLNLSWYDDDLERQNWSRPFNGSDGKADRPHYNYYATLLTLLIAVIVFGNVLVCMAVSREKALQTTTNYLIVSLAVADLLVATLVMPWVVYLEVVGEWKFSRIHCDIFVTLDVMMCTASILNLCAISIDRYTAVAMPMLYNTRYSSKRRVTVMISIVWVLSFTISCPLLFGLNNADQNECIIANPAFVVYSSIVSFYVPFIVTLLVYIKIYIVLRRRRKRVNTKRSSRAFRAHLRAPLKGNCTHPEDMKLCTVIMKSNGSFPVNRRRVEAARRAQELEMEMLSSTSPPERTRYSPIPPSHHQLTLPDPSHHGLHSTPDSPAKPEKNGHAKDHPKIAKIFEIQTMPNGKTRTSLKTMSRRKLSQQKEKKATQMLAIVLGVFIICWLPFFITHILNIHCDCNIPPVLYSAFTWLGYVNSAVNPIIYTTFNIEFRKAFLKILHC
UniProt P28223, whole entry, looked up: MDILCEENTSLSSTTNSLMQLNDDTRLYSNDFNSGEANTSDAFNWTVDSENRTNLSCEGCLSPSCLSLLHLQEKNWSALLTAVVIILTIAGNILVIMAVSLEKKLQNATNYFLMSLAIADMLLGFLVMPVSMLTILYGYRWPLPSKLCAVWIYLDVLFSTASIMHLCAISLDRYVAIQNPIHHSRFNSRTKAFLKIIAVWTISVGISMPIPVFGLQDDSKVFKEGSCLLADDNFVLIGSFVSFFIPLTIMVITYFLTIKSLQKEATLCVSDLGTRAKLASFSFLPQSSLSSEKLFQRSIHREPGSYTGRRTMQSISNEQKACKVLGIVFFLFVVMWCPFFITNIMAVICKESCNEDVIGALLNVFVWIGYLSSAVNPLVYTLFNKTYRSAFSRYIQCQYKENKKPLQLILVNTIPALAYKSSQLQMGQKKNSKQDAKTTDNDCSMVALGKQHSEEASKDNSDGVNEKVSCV
UniProt P11229: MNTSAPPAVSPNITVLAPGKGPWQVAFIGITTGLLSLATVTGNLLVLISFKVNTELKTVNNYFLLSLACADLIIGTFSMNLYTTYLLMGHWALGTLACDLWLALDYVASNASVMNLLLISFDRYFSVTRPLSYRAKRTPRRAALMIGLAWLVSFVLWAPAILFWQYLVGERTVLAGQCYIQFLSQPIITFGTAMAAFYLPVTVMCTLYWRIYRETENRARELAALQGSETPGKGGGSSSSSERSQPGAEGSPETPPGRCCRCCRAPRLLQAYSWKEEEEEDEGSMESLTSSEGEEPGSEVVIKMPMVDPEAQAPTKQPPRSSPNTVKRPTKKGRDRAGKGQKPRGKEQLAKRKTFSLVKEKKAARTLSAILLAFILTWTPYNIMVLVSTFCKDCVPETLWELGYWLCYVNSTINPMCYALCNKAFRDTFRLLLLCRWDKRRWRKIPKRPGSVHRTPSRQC

Experiments:
[1] = p53 small molecule agonists, cell-based qHTS assay with human liver microsomes (AID 1963577); conditions: HCT-116 p53RE-bla with human liver microsomes, ratio, 16 h; activation: at 66 µM (top of the series) unless noted; also: potency is read from the fitted curve at half-maximal effect;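 as to activation: p53 response element beta-lactamase reporter cells with liver microsomes plus NADPH; % is scaled to controls: 0 for no effect and ±100 for the full control effect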
Outline: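 With metabolic activation: human liver microsomes (0.5 mg/mL final) plus NADPH (0.5 mg/mL final) added alongside compounds to p53RE-bla cells; 16 h 37 C exposure; beta-lactamase read by LiveBLAzer fluorescence.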

[2] = p53 small molecule agonists, cell-based qHTS assay (AID 1963582; active = well fitted activation curve with a large enough effect in the signal ratio in the repeat runs, not every such curve was filed as active; inconclusive = weak or mixed curves; the % refers to the signal ratio; also: potency is read from the fitted curve at half-maximal effect; as to activation: % is scaled to controls: 0 for no effect and ±100 for the full control effect); conditions: HCT-116 p53RE-bla reporter, beta-lactamase FRET ratio, 16 h; activation: at 66 µM (top of the series) unless noted
Outline: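 In this cell-based concentration-response screen, a p53 response element drives beta-lactamase; cells received DMSO-borne compounds after 5 h culture and were incubated a further 16 h before FRET substrate development.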

[3] = molecular target: Beta-2 adrenergic receptor (Homo sapiens) (UniProt P07550); assay: Adrenergic beta2 receptor (ADRB2) small molecule agonists, cell-based qHTS assay (AID 1963593); conditions: CHO-ADRB2 cells, cAMP HTRF, 30 min; activation: at 92.4 µM (top of the series) unless noted; also: potency is read from the fitted curve at half-maximal effect;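 as to activation: CHO cells stably overexpressing human ADRB2; % is scaled to controls: 0 for no effect and ±100 for the full control effect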
Outline: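 CHO cells stably over-expressing ADRB2 were plated overnight at 37C, then dosed with compounds plus a stimulation mix containing 100uM IBMX and 25uM Ro-20-1724 for 0.5hr at room temperature. cAMP was measured by HTRF competition, 1hr.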

[4] = molecular target: D(2) dopamine receptor (Homo sapiens) (UniProt P14416); assay: Dopamine D2 receptor (DRD2) small molecule agonists, cell-based qHTS assay (AID 1963594); conditions: HEK293-DRD2 cAMP HTRF, agonist mode, 30 min; activation: at 92.4 µM (top of the series) unless noted; also: nearly all actives have a fitted effect of over 35% in size; also: potency is read from the fitted curve at half-maximal effect; as to activation: % is scaled to controls: 0 for no effect and ±100 for the full control effect
Outline: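 HEK293 cells stably expressing DRD2 were cultured 24 h at 37 C, then given Ro20-1724 (0.1 mM final) and compounds for 10 min at room temperature. NKH477 (200nM) was then added for 30 min. cAMP was read by HTRF.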

[5] = molecular target: 5-hydroxytryptamine receptor 2A (Homo sapiens) (UniProt P28223); assay: 5-hydroxytryptamine receptor 2A (HTR2A) small molecule antagonists, cell-based qHTS assay (AID 1963586); also: nearly all actives have a fitted effect of over 45% in size; also: potency is read from the fitted curve at half-maximal effect
Outline: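 Antagonist-mode intracellular calcium assay: DOI (4 nM) added after 5 min compound pre-incubation at room temperature to dye-loaded HTR2A-CHO cells. Fluorescence followed for 3 min, sampled every second.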

[6] = cAMP Responsive Elements (CRE) small molecule agonists, cell-based qHTS assay (AID 1963590); conditions: CRE-bla HEK293T, beta-lactamase FRET ratio, 3 h; activation: at 92.4 µM (top of the series) unless noted; also: potency is read from the fitted curve at half-maximal effect
Outline: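 A CRE-responsive beta-lactamase reporter in HEK 293T cells was used. Treatment ran 3 h at 37 C; detection used LiveBLAzer B/G FRET substrate for 2 h at room temperature.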

[7] = cAMP Responsive Elements (CRE) small molecule antagonists, cell-based qHTS assay (AID 1963591; active = well fitted inhibition curve with a large enough effect in the signal ratio in the repeat runs, not every such curve was filed as active; inconclusive = weak or mixed curves, or effect the other way; the % refers to the signal ratio; also: potency is read from the fitted curve at half-maximal effect); conditions: CRE-bla HEK293T, beta-lactamase FRET ratio; activity change, negative = inhibition: at 92.4 µM (top of the series) unless noted
Outline: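 HEK293T cells carrying a CRE-driven beta-lactamase reporter receive compound and NKH477 (0.25 uM final) for 3 h. Fluorescence from LiveBLAzer B/G FRET substrate is read after 2 h at room temperature.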

[8] = molecular target: Muscarinic acetylcholine receptor M1 (Homo sapiens) (UniProt P11229); assay: Cholinergic receptor muscarinic 1 (CHRM1) small molecule antagonists, cell-based qHTS assay (AID 1963588); also: nearly all actives have a fitted effect of over 40% in size; also: potency is read from the fitted curve at half-maximal effect
Outline: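 CHRM1-CHO calcium-flux assay, antagonist mode. Cells were seeded 18 h, dye-loaded 1 h at 37 C and given compound for 5 min at RT, then acetylcholine was added at 50nM. FDSS fluorescence was read 3 min; 15 concentrations, three runs.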

[9] = molecular target: D(2) dopamine receptor (Homo sapiens) (UniProt P14416); assay: Dopamine D2 receptor (DRD2) small molecule antagonists, cell-based qHTS assay (AID 1963595; active = well fitted inhibition curve with a large enough effect in the signal ratio in the repeat runs, with a control signal flat; inconclusive = weak or mixed curves, or effect the other way; the % refers to the signal ratio; also: potency is read from the fitted curve at half-maximal effect); conditions: HEK293-DRD2 cAMP HTRF antagonist mode; activity change, negative = inhibition: at 92.4 µM (top of the series) unless noted
Outline: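 HEK293 cells stably expressing DRD2, preincubated with 0.1 mM Ro20-1724 and compounds 10 min, were stimulated with 200 nM NKH477 plus 12 nM quinpirole for 30 min at room temperature; cAMP measured by HTRF (665/620 nm).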

[10] = molecular target: Beta-2 adrenergic receptor (Homo sapiens) (UniProt P07550); assay: Adrenergic beta2 receptor (ADRB2) small molecule antagonists, cell-based qHTS assay (AID 1963592); conditions: CHO-ADRB2 cells, isoproterenol-stimulated cAMP HTRF ratio, 0.5 h; activity change, negative = inhibition: at 92.4 µM (top of the series) unless noted; also: nearly all actives have a fitted effect of over 50% in size; also: potency is read from the fitted curve at half-maximal effect
Outline: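 Cells (CHO, stable ADRB2 overexpression) incubated 18-20hr at 37C; compounds added from DMSO; agonist mix (1nM isoproterenol, 100uM IBMX, 25uM Ro-20-1724) added; 0.5hr RT; d2-cAMP and anti-cAMP-cryptate added; 1hr RT; 665/615 nm read.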

[11] = molecular target: 5-hydroxytryptamine receptor 2A (Homo sapiens) (UniProt P28223); assay: 5-hydroxytryptamine receptor 2A (HTR2A) small molecule agonists, cell-based qHTS assay (AID 1963587); also: % is scaled to controls: 0 for no effect and ±100 for the full control effect; nearly all actives have a fitted effect of over 30% in size
Outline: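 HTR2A-CHO cells, plated 18 h at 37 C/5% CO2, dye-loaded 1 h at 37 C; compounds in DMSO added by pin tool (agonist mode). Intracellular calcium flux read as kinetic fluorescence on FDSS over 2 min at 1 s intervals.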

Q: With `Cc1c[nH]c(=O)[nH]c1=O` as the molecule, how does the Potency [1] read?
A: inactive

Q: And the Potency [2]?
A: inactive

Q: And the Potency [3]?
A: inactive

Q: And the Potency [4]?
A: inactive

Q: What does the source list for `Cn1c(=O)cc(Oc2ccc(F)cc2F)c2cnc(NCC(C)(C)O)nc21`?
A: Potency [1]: inactive; Potency [5]: inactive; Potency [6]: inconclusive: 54.5 µM [fluorescent]; activity change, negative = inhibition [7]: inconclusive: 15.5%; Potency [3]: inactive

Q: With `CCCCOCCOCCOC(C)=O` as the molecule, how does the Potency [1] read?
A: inactive

Q: What about the Potency [5] of the same molecule?
A: inactive

Q: What about the Potency [7] of the same molecule?
A: inactive

Q: Which results are given for `Oc1ccc(CCNCCCCCCNCCc2ccccc2)cc1O`?
A: Potency [1]: inactive; Potency [5]: inconclusive: 11.6 µM [inhibitor, single point]; Potency [8]: inactive; Potency [6]: inconclusive: 2.98 µM [activator]; Potency [7]: inactive; Potency [3]: inconclusive: 10.6 µM [activator, full curve, poor fit]; Potency [9]: active: 8.41 µM

Q: Which results are given for `CN=C(NC#N)Nc1ccc(C2=NNC(=O)CC2C)cc1` (stereo not drawn)?
A: Potency [1]: inactive; Potency [2]: inconclusive: 7.93 µM [falling, partial curve, poor fit]; activation [3]: inconclusive: -32.9% [at 42.5 µM]; Potency [4]: inconclusive: 10.2 µM

Q: Which results are given for `CC[C@@H](N)CO`?
A: Potency [1]: inactive; Potency [5]: inconclusive: 3.98 µM [inhibitor, full curve, poor fit]; Potency [3]: inconclusive: 29 µM [activator, single point]

Q: Which results are given for `C=CC(C)CCCC(C)(C)O` (stereo not drawn)?
A: Potency [1]: inactive; Potency [5]: inconclusive: 0.0133 µM [inhibitor, full curve, poor fit]; activity change, negative = inhibition [7]: inconclusive: 0.0915%; Potency [3]: inactive; Potency [4]: inactive

Q: For `Cc1nc2n(c(=O)c1CCN1CCC(C(=O)c3ccc(F)cc3)CC1)CCS2`, which Potency [1] is on record?
A: inactive

Q: And the Potency [5]?
A: active: 0.0041 µM

Q: What about the Potency [8] of the same molecule?
A: inconclusive: 4.1 µM [inhibitor, full curve]

Q: And the Potency [3]?
A: inactive

Q: What about the Potency [9] of the same molecule?
A: active: 0.0668 µM

Q: With `COc1cc(C(=O)OCCCN2CCCN(CCCOC(=O)c3cc(OC)c(OC)c(OC)c3)CC2)cc(OC)c1OC` as the molecule, how does the Potency [1] read?
A: inconclusive: 0.0199 µM [rising, full curve, poor fit]

Q: And the Potency [5]?
A: inactive

Q: What about the Potency [8] of the same molecule?
A: active: 7.29 µM

Q: And the activity change, negative = inhibition [7]?
A: inconclusive: 16.3% [at 42.4 µM]

Q: What about the Potency [3] of the same molecule?
A: inconclusive: 18.8 µM [inhibitor, single point]

Q: With `COCC(C)O` (stereo not drawn) as the molecule, how does the activation [1] read?
A: inconclusive: 6.18%

Q: And the Potency [5]?
A: inconclusive: 0.0061 µM [inhibitor, full curve]

Q: What about the Potency [10] of the same molecule?
A: inactive

Q: And the Potency [3]?
A: inconclusive: 2.22 µM [inhibitor, partial curve, poor fit] and inactive

Q: With `C=C(C)C(=O)OCCOC(=O)CC(C)=O` as the molecule, how does the Potency [1] read?
A: inconclusive: 40.8 µM [fluorescent, single point]

Q: And the Potency [5]?
A: inconclusive: 0.0021 µM [inhibitor, full curve, poor fit]

Q: And the Potency [6]?
A: inconclusive: 61.1 µM [rising, partial curve, poor fit]

Q: And the Potency [7]?
A: inconclusive: 68.6 µM [activator, partial curve]

Q: What about the activation [3] of the same molecule?
A: inconclusive: -10%

Q: With `O=C(CCCN1CCN(c2ccc(F)cc2)CC1)NC1c2ccccc2CSc2ccccc21` (stereo not drawn) as the molecule, how does the Potency [1] read?
A: inconclusive: 19.9 µM [fluorescent, partial curve]

Q: And the Potency [5]?
A: inconclusive: 4.1 µM [inhibitor, full curve, poor fit]

Q: What about the Potency [8] of the same molecule?
A: inconclusive: 2.9 µM [inhibitor, full curve]

Q: And the Potency [6]?
A: inconclusive: 26.6 µM [rising, single point]

Q: What about the activity change, negative = inhibition [7] of the same molecule?
A: inconclusive: -46.4% [at 42.4 µM]

Q: And the Potency [10]?
A: active: 7.5 µM

Q: And the Potency [3]?
A: inconclusive: 3.35 µM [inhibitor, full curve]

Q: What about the Potency [9] of the same molecule?
A: inconclusive: 33.5 µM [inhibitor, single point]

Q: For `CN(C1CCCCC1)S(=O)(=O)c1ccccc1N`, which Potency [1] is on record?
A: inactive

Q: And the Potency [5]?
A: active: 37.5 µM

Q: What about the Potency [11] of the same molecule?
A: inactive

Q: And the Potency [8]?
A: inactive

Q: What about the Potency [10] of the same molecule?
A: inactive

Q: What about the Potency [3] of the same molecule?
A: inactive

Q: With `C[C@]12CC[C@@H]3c4ccc(O)cc4CC[C@H]3[C@@H]1CC[C@@H]2O` as the molecule, how does the Potency [1] read?
A: inconclusive: 10.2 µM [rising, full curve]

Q: What about the Potency [2] of the same molecule?
A: inconclusive: 18.2 µM [activator] and inactive

Q: What about the activation [3] of the same molecule?
A: inconclusive: -40% and inconclusive: -35.7%

Q: For `Nc1cc(C(=O)O)c(O)c(S(=O)(=O)O)c1`, which Potency [1] is on record?
A: inactive

Q: What about the Potency [5] of the same molecule?
A: inactive

Q: What about the activation [3] of the same molecule?
A: inconclusive: -40.8%

Q: With `O=c1[nH]cnc2c1ncn2[C@@H]1O[C@H](CO)[C@@H](O)[C@H]1O` as the molecule, how does the Potency [1] read?
A: inactive

Q: What about the Potency [2] of the same molecule?
A: inactive

Q: What about the Potency [3] of the same molecule?
A: inactive
